Measured data: PubChem BioAssay AID1259264 (Sanger Institute, 2017)
Aim: 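Kinase-wide knock-down to find genes that strengthen targeted drug effects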 (primary screen). System: CL40 human colorectal cancer cells. Reagent: siRNA pool against human genes. Conditions: DMSO, or an anchor drug: BYL719 at 1 µM, cetuximab at 5 µg/ml, or trametinib at 10 nM. Measurement: 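Replicate-mean viability versus a non-targeting pool, robust z-score from control wells, and mean synergy with BYL719 1 µM, cetuximab 5 µg/ml or trametinib 10 nM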. Scale: robust z-score, siRNA alone and viability, siRNA alone: higher = more viable cells; synergy score with BYL719: higher = stronger combined killing with BYL719. Active means: 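a gene counts as essential when knock-down without drug gives a robust z-score below -3, meaning fewer cells; synergy scores play no part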. Calls: active = essential (lowers viability alone); inactive = not essential.
Here is a random part of 794 reagents. Over the whole deposit, 15 (1.9%) got an active call. 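Calls rest on knock-down alone at z-score below -3; synergy scores with the three drugs do not decide them.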 Viability is capped at 1. Further read-outs or replicates are left out here. Not given: the amount of reagent, the time to read-out.

no.	target gene	robust z-score, siRNA alone	viability, siRNA alone (fraction of control)	synergy score with BYL719	Outcome
1	ETNK1	0.539	1	-0.122	inactive
2	MAP3K7	0.539	1	-0.102	inactive
3	DUSP21	0.539	1	-0.09	inactive
4	MYLK3	0.485	0.996	-0.159	inactive
5	PANK1	0.539	1	-0.156	inactive
6	PI4KB	0.539	1	-0.0661	inactive
7	MPP1	0.521	0.999	-0.0804	inactive
8	CDK11B	-1.44	0.858	-0.167	inactive
9	TWF1	0.259	0.98	-0.0956	inactive
10	EPHB4	0.539	1	0.0179	inactive
11	CSNK1A1	0.539	1	-0.061	inactive
12	CDKN2C	0.338	0.986	-0.107	inactive
13	CKS1B	0.0137	0.962	-0.0559	inactive
14	IKBKB	0.539	1	-0.0896	inactive
15	CDK4	0.539	1	-0.107	inactive
16	RPS6KA3	0.539	1	-0.0728	inactive
17	MARK3	0.539	1	-0.0663	inactive
18	SIK3	-0.143	0.951	-0.111	inactive
19	PGK1	0.539	1	-0.127	inactive
20	CDK3	0.193	0.975	-0.0933	inactive
